According to the supplement of paper PMC12823440, “Inhibitors supercharge kinase turnover through native proteolytic circuits” (Nature, 2025):
Structures can show the parent of a compound that is named as a salt. Some of the results follow. Hit calls seldom repeat between salt and free forms of one compound.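 In K562 cells expressing nanoluciferase-fused kinases, luminescence was recorded at 4 h intervals between 2 and 18 h, normalized as percent of control with DMSO at 100% and a positive control at 0%. A significant (2 sigma) signal drop marks a time point as decreased. The authors' rule for a hit is not shown and takes in more than the number of time points.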

Protein sequences, listed by entry. Tags and fused reporters are not part of them. Lines headed by an entry give the natural chain unless they say otherwise; changes in a name come on top.
UniProt P28482, whole entry: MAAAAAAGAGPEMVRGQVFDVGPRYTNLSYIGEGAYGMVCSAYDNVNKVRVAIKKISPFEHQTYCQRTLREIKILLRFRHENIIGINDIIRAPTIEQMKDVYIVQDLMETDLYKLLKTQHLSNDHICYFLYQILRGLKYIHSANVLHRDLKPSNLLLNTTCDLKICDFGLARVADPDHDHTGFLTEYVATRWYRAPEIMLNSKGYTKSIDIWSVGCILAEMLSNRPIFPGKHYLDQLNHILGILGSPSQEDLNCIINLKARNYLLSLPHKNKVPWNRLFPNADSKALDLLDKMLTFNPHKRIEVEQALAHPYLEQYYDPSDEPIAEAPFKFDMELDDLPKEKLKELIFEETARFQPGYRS
UniProt P31152, whole entry: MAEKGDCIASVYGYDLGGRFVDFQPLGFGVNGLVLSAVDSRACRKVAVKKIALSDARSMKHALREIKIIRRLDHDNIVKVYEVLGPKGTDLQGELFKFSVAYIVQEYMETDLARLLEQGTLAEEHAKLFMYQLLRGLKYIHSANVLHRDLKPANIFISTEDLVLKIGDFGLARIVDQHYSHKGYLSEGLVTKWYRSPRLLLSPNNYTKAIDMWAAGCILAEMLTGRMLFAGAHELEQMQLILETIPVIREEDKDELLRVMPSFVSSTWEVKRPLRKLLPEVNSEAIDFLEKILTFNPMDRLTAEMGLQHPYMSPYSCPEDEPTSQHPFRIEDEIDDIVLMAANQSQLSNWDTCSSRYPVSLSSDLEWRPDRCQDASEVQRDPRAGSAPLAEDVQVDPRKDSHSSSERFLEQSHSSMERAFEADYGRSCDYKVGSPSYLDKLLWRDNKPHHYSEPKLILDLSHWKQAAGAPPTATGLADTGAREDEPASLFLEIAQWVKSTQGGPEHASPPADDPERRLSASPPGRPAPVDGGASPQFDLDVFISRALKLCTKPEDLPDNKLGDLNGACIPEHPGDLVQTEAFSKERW
UniProt P49137, whole entry, looked up: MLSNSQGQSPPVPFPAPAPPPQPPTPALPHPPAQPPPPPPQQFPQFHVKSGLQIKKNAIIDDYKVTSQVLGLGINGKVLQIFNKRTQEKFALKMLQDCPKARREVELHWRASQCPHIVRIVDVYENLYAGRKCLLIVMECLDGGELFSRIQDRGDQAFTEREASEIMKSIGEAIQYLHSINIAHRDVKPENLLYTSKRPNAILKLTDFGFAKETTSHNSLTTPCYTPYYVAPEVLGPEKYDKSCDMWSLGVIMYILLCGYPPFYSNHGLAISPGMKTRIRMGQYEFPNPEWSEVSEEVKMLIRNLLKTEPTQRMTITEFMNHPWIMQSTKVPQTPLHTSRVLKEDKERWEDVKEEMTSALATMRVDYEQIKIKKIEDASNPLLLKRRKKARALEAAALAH
UniProt Q9BUB5: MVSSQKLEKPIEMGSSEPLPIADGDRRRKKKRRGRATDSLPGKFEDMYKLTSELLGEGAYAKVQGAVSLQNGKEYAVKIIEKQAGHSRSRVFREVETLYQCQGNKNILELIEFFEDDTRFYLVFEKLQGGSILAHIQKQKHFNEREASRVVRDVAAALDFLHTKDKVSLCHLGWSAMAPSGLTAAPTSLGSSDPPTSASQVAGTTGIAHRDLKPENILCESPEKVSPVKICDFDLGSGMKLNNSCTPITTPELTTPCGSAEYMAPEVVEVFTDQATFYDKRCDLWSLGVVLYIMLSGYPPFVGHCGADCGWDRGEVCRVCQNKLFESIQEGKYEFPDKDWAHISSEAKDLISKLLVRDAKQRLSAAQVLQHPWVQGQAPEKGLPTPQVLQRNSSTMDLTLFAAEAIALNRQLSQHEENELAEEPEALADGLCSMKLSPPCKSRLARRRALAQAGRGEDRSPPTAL
UniProt Q16620, whole entry, looked up: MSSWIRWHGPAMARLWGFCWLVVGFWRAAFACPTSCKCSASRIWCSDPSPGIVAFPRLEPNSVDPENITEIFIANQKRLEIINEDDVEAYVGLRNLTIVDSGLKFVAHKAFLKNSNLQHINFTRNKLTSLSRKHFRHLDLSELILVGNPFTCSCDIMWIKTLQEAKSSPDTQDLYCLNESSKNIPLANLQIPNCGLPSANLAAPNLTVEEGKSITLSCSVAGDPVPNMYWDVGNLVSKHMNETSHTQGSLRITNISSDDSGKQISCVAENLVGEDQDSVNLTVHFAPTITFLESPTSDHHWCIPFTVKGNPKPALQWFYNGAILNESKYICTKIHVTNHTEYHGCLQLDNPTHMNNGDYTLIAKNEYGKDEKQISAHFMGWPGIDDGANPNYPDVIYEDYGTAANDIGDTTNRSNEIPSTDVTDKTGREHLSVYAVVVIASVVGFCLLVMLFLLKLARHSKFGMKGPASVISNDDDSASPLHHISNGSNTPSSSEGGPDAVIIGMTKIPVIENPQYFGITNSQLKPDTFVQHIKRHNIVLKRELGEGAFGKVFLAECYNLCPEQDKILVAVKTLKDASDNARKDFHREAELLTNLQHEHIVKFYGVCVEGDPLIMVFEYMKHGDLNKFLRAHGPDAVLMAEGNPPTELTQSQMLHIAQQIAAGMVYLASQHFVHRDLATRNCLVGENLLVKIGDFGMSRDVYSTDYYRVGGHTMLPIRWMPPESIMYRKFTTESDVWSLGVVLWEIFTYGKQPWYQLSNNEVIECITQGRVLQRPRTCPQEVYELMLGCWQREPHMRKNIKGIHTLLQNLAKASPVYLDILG
UniProt Q16288, whole entry, looked up: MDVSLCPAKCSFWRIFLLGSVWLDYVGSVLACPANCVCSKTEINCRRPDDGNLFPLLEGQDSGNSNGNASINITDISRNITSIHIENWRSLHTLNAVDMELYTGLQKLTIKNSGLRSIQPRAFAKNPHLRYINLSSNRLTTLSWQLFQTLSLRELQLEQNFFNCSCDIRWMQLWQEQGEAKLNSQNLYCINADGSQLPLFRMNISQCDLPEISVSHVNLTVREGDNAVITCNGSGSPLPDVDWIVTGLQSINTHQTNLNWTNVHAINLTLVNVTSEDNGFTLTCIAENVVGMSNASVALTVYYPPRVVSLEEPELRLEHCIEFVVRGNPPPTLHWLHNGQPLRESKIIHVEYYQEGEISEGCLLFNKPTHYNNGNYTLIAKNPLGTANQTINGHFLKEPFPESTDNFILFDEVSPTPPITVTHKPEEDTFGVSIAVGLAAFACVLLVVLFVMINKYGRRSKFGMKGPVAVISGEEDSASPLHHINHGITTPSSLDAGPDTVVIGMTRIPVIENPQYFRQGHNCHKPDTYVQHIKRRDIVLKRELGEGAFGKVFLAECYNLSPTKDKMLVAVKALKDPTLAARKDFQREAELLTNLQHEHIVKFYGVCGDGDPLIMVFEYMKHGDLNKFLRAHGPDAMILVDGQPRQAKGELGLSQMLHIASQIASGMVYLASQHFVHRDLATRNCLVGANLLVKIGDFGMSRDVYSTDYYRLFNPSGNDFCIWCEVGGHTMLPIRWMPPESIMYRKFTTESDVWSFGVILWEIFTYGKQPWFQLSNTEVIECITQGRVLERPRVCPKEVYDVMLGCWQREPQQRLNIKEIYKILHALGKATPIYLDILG
UniProt O96013: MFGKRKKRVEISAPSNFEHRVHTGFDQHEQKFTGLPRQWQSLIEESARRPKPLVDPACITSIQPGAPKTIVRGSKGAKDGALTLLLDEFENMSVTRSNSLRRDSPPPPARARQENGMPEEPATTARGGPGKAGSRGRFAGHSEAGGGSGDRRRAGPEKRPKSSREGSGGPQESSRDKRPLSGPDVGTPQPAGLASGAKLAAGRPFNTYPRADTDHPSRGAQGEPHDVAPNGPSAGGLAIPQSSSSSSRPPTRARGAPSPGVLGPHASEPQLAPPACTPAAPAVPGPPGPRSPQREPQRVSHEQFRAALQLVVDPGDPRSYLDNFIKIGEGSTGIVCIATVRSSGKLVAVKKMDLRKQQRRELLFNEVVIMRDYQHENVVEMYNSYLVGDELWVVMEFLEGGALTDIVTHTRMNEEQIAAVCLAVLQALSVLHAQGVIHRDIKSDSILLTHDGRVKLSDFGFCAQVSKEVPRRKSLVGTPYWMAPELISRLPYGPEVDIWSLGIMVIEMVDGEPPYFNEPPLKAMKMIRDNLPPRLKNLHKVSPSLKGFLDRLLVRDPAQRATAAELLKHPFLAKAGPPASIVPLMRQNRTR
UniProt Q96KB5: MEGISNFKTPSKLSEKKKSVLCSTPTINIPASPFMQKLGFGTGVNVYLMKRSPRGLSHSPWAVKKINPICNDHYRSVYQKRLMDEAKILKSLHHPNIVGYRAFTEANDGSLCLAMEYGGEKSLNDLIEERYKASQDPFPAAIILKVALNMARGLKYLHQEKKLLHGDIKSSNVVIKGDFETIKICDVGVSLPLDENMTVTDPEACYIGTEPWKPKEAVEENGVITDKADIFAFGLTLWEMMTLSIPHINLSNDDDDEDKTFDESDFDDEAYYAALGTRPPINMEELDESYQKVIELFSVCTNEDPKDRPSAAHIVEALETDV
UniProt P09619, whole entry: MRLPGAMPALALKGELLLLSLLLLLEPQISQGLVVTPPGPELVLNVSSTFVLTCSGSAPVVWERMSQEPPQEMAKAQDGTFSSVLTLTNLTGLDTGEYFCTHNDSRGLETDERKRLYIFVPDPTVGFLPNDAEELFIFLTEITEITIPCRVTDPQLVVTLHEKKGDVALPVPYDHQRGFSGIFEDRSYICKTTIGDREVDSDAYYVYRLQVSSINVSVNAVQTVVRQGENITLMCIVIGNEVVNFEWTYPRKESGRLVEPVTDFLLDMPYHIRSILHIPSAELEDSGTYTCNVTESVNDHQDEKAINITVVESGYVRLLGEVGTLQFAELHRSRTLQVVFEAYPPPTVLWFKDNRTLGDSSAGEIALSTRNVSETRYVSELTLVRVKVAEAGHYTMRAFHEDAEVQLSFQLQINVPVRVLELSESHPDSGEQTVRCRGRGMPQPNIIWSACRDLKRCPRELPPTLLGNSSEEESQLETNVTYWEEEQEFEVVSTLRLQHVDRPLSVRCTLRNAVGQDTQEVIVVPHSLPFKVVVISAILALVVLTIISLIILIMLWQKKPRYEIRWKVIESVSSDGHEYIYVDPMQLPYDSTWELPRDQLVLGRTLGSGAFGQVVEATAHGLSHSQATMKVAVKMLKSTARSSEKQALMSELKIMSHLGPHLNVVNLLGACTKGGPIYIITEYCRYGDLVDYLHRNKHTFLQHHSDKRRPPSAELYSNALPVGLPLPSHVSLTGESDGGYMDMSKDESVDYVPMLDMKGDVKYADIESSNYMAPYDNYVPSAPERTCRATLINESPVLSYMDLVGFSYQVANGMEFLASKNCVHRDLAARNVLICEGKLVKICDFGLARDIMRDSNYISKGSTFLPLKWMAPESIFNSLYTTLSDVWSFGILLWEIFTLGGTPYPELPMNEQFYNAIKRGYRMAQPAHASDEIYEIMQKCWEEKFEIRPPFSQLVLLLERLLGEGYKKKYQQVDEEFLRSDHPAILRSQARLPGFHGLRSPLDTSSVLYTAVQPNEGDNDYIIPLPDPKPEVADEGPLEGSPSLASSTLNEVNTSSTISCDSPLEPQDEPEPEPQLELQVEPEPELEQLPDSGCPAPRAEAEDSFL
UniProt Q15118, whole entry, looked up: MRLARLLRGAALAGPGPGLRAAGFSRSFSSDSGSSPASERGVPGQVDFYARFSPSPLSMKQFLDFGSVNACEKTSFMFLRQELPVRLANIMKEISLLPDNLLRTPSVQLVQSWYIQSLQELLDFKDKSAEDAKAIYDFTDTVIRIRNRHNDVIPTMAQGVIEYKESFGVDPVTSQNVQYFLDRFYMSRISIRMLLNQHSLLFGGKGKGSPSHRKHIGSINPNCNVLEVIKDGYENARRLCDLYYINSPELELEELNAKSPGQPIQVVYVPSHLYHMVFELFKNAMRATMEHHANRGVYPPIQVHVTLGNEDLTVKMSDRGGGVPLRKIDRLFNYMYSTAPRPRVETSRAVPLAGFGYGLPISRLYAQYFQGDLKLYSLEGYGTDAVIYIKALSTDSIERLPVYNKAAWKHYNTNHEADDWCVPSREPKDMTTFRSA

Tests used:
Experiment in all cases: kinase-Nluc reporter destabilization hit call (1 = scored as downregulated) (binary); higher = compound decreases kinase abundance
Conditions in all cases: K562, 2-18 h
[1] = target: MAPK1 (UniProt P28482)
[2] = target: MAPK4 (UniProt P31152)
[3] = target: MAPKAPK2 (UniProt P49137)
[4] = target: MKNK1 (UniProt Q9BUB5)
[5] = target: NTRK2 (UniProt Q16620)
[6] = target: NTRK3 (UniProt Q16288)
[7] = target: PAK4 (UniProt O96013)
[8] = target: PBK (UniProt Q96KB5)
[9] = target: PDGFRB (UniProt P09619)
[10] = target: PDK1 (UniProt Q15118)

Measured: kinase-Nluc reporter destabilization hit call

NC1(C(=O)N[C@@H](CCO)c2ccc(Cl)cc2)CCN(c2nc[nH]c3nccc2-3)CC1 [Capivasertib]
inactive: [1]; 10 µM 0 | [2]; 10 µM 0 | [3]; 10 µM 0 | [4]; 10 µM 0 | [5]; 10 µM 0 | [6]; 10 µM 0 | [7]; 10 µM 0 | [8]; 10 µM 0 | [9]; 10 µM 0 | [10]; 10 µM 0

CC[C@@H]1C(=O)N(C)c2cnc(Nc3ccc(C(=O)NC4CCN(C)CC4)cc3OC)nc2N1C1CCCC1
inactive: [1]; 10 µM 0 | [2]; 10 µM 0 | [3]; 10 µM 0 | [4]; 10 µM 0 | [5]; 10 µM 0 | [6]; 10 µM 0 | [7]; 10 µM 0 | [8]; 10 µM 0 | [9]; 10 µM 0 | [10]; 10 µM 0

Cc1ccc(Nc2nccc(N(C)c3ccc4c(C)n(C)nc4c3)n2)cc1S(N)(=O)=O [Pazopanib (Hydrochloride)]
inactive: [1]; 10 µM 0 | [2]; 10 µM 0 | [3]; 10 µM 0 | [4]; 10 µM 0 | [5]; 10 µM 0 | [6]; 10 µM 0 | [7]; 10 µM 0 | [8]; 10 µM 0 | [9]; 10 µM 0 | [10]; 10 µM 0

NCCNc1ncc(C(N)=O)c(Nc2cccc(C(F)(F)F)c2)n1 [Syk Inhibitor II]
inactive: [1]; 10 µM 0 | [2]; 10 µM 0 | [3]; 10 µM 0 | [4]; 10 µM 0 | [5]; 10 µM 0 | [6]; 10 µM 0 | [7]; 10 µM 0 | [8]; 10 µM 0 | [9]; 10 µM 0 | [10]; 10 µM 0

O=C(Nc1cccc(Nc2nccc(Nc3cccc(C(F)(F)F)c3)n2)c1)C1CC1 [Aurora kinase inhibitor-3]
inactive: [1]; 2.5 µM 0 | [2]; 2.5 µM 0 | [3]; 2.5 µM 0 | [4]; 2.5 µM 0 | [5]; 2.5 µM 0 | [6]; 2.5 µM 0 | [7]; 2.5 µM 0 | [8]; 2.5 µM 0 | [9]; 2.5 µM 0 | [10]; 2.5 µM 0

Cc1cc(C)n2c1C=C1C=CC(CCC(=O)NCCN3CCN(C/C=C/C(=O)N4CCCC(n5nc(-c6ccc(Oc7ccccc7)cc6)c6c(N)ncnc65)C4)CC3)=[N+]1[B-]2(F)F (stereo not given)
inactive: [1]; 2.5 µM 0 | [2]; 2.5 µM 0 | [3]; 2.5 µM 0 | [4]; 2.5 µM 0 | [5]; 2.5 µM 0 | [6]; 2.5 µM 0 | [7]; 2.5 µM 0 | [8]; 2.5 µM 0 | [9]; 2.5 µM 0 | [10]; 2.5 µM 0

Fc1ccc(-c2nc(-c3ccc4ccccc4c3F)[nH]c2-c2ccncc2)cc1
inactive: [1]; 10 µM 0 | [2]; 10 µM 0 | [3]; 10 µM 0 | [4]; 10 µM 0 | [5]; 10 µM 0 | [6]; 10 µM 0 | [7]; 10 µM 0 | [8]; 10 µM 0 | [9]; 10 µM 0 | [10]; 10 µM 0

4 structures out of the list, arranged by count of non-hydrogen atoms, low to high:
NC1(C(=O)N[C@@H](CCO)c2ccc(Cl)cc2)CCN(c2nc[nH]c3nccc2-3)CC1 [Capivasertib]
inactive: [1]; 10 µM 0 | [2]; 10 µM 0 | [3]; 10 µM 0 | [4]; 10 µM 0 | [5]; 10 µM 0 | [6]; 10 µM 0 | [7]; 10 µM 0 | [8]; 10 µM 0 | [9]; 10 µM 0 | [10]; 10 µM 0

Cc1ccc(Nc2nccc(N(C)c3ccc4c(C)n(C)nc4c3)n2)cc1S(N)(=O)=O [Pazopanib (Hydrochloride)]
inactive: [1]; 10 µM 0 | [2]; 10 µM 0 | [3]; 10 µM 0 | [4]; 10 µM 0 | [5]; 10 µM 0 | [6]; 10 µM 0 | [7]; 10 µM 0 | [8]; 10 µM 0 | [9]; 10 µM 0 | [10]; 10 µM 0

CC[C@@H]1C(=O)N(C)c2cnc(Nc3ccc(C(=O)NC4CCN(C)CC4)cc3OC)nc2N1C1CCCC1
inactive: [1]; 10 µM 0 | [2]; 10 µM 0 | [3]; 10 µM 0 | [4]; 10 µM 0 | [5]; 10 µM 0 | [6]; 10 µM 0 | [7]; 10 µM 0 | [8]; 10 µM 0 | [9]; 10 µM 0 | [10]; 10 µM 0

Cc1cc(C)n2c1C=C1C=CC(CCC(=O)NCCN3CCN(C/C=C/C(=O)N4CCCC(n5nc(-c6ccc(Oc7ccccc7)cc6)c6c(N)ncnc65)C4)CC3)=[N+]1[B-]2(F)F (stereo not given)
inactive: [1]; 2.5 µM 0 | [2]; 2.5 µM 0 | [3]; 2.5 µM 0 | [4]; 2.5 µM 0 | [5]; 2.5 µM 0 | [6]; 2.5 µM 0 | [7]; 2.5 µM 0 | [8]; 2.5 µM 0 | [9]; 2.5 µM 0 | [10]; 2.5 µM 0

Following part.

O=C(NCCCNc1nc(Nc2cccc(CN3CCOCC3)c2)ncc1C1CC1)C1CCC1
inactive: [1]; 10 µM 0 | [2]; 10 µM 0 | [3]; 10 µM 0 | [4]; 10 µM 0 | [5]; 10 µM 0 | [6]; 10 µM 0 | [7]; 10 µM 0 | [8]; 10 µM 0 | [9]; 10 µM 0 | [10]; 10 µM 0

Nc1nc(Nc2ccc(S(N)(=O)=O)cc2)nn1C(=O)c1c(F)cccc1F
inactive: [1]; 2.5 µM 0 | [2]; 2.5 µM 0 | [3]; 2.5 µM 0 | [4]; 2.5 µM 0 | [5]; 2.5 µM 0 | [6]; 2.5 µM 0 | [7]; 2.5 µM 0 | [8]; 2.5 µM 0 | [9]; 2.5 µM 0 | [10]; 2.5 µM 0

C=CC(=O)Nc1cc2c(Nc3ccc(F)c(Cl)c3)ncnc2cc1OCCCN1CCOCC1 [Canertinib]
inactive: [1]; 10 µM 0 | [2]; 10 µM 0 | [3]; 10 µM 0 | [4]; 10 µM 0 | [5]; 10 µM 0 | [6]; 10 µM 0 | [7]; 10 µM 0 | [8]; 10 µM 0 | [9]; 10 µM 0 | [10]; 10 µM 0

CC#CC(=O)N1CCC[C@H]1c1nc(-c2ccc(C(=O)Nc3ccccn3)cc2)c2c(N)nccn12 [Acalabrutinib]
inactive: [1]; 10 µM 0 | [2]; 10 µM 0 | [3]; 10 µM 0 | [4]; 10 µM 0 | [5]; 10 µM 0 | [6]; 10 µM 0 | [7]; 10 µM 0 | [8]; 10 µM 0 | [9]; 10 µM 0 | [10]; 10 µM 0

Cc1ccc2c(=O)c3cccc(CC(=O)O)c3oc2c1C [Vadimezan]
inactive: [1]; 10 µM 0 | [2]; 10 µM 0 | [3]; 10 µM 0 | [4]; 10 µM 0 | [5]; 10 µM 0 | [6]; 10 µM 0 | [7]; 10 µM 0 | [8]; 10 µM 0 | [9]; 10 µM 0 | [10]; 10 µM 0

COc1ccc(-c2cc(C(=O)NN=C(C)c3ccc(OC)c(OC)c3)[nH]n2)cc1
inactive: [1]; 10 µM 0 | [2]; 10 µM 0 | [3]; 10 µM 0 | [4]; 10 µM 0 | [5]; 10 µM 0 | [6]; 10 µM 0 | [7]; 10 µM 0 | [8]; 10 µM 0 | [9]; 10 µM 0 | [10]; 10 µM 0

C=CC(=O)N(C)CCOc1c(N)ncnc1-c1cc(F)cc(NC(=O)c2ccc(C3CC3)cc2F)c1C [Remibrutinib]
inactive: [1]; 10 µM 0 | [2]; 10 µM 0 | [3]; 10 µM 0 | [4]; 10 µM 0 | [5]; 10 µM 0 | [6]; 10 µM 0 | [7]; 10 µM 0 | [8]; 10 µM 0 | [9]; 10 µM 0 | [10]; 10 µM 0
